Measured values reported in article PMC12499488.
These are yes or no findings as the source states them, for the method shown. In cells and extracts the contact can be indirect. Some binding calls cover weakened binding; strength is not graded here.

Chains of the proteins cited; added tags and fusions are not shown.
UniProt P47196: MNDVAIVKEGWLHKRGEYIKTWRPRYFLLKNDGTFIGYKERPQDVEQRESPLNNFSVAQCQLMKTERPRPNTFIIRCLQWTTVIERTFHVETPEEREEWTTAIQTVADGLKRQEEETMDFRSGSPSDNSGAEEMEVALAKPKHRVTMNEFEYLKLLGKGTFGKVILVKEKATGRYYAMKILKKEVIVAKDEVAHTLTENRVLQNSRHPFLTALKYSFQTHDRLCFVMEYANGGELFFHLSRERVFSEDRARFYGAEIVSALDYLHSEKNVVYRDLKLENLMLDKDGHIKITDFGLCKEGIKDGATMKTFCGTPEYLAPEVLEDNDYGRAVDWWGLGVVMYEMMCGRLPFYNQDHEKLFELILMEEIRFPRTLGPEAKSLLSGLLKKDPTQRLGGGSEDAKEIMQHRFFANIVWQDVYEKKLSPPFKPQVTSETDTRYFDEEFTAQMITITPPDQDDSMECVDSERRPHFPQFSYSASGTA
UniProt F7F8L9: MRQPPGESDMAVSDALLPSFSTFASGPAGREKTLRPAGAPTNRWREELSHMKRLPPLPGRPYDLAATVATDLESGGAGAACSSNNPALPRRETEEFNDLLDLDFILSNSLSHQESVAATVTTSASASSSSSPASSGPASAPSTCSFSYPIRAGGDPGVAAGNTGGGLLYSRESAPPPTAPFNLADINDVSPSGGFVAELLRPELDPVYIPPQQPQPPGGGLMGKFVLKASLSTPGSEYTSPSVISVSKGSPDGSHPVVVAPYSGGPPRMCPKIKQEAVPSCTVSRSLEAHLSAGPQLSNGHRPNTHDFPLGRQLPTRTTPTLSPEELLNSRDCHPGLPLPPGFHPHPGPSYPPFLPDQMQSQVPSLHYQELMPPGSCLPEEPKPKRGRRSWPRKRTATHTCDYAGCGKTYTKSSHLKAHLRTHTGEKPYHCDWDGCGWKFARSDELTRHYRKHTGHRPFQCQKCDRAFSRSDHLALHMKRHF
UniProt P63331: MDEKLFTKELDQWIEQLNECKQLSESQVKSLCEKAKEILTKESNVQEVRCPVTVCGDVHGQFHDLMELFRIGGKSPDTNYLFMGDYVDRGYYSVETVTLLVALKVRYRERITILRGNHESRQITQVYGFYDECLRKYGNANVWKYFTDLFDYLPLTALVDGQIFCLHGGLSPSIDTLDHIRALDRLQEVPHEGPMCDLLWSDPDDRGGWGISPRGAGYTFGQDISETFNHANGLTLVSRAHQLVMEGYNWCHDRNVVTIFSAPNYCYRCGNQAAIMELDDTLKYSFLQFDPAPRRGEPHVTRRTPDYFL

Columns and labels:
Assay in all cases: co-IP; endogenous proteins of primary rat VSMCs; NP40 lysate incubated overnight at 4 °C with the primary antibody (or control IgG), protein A/G plus-agarose 5 h at 4 °C, three washes, Western blot
[1] = biological target: Protein kinase B 1 (AKT1), endogenous in rat VSMCs (rat (endogenous in primary rat VSMCs)) (UniProt P47196)
[2] = biological target: Kruppel-like factor 4 (KLF4), endogenous in rat VSMCs (rat (endogenous in primary rat VSMCs)) (UniProt F7F8L9)
[3] = biological target: PP2Acα (protein phosphatase 2A catalytic subunit C, α isoform), endogenous in rat VSMCs (rat (endogenous in primary rat VSMCs)) (UniProt P63331)

In the case of “Kruppel-like factor 4 (KLF4), endogenous in rat VSMCs (from UniProt F7F8L9 1-482)”, the binding [1] is reported as “binds”.
“PP2Acα (protein phosphatase 2A catalytic subunit C, α isoform), endogenous in rat VSMCs (from UniProt P63331 1-309) (enzyme)” was tested, and the binding [2] was “no binding”.
With “Protein kinase B 1 (AKT1), endogenous in rat VSMCs (from UniProt P47196 1-480) (enzyme)” the binding [3] was “binds”.
